Source: PMC11248248
These are yes or no findings as the source states them, for the method shown. For part of these data: A result given as binding can be weak or reduced; the word gives no strength. For part of these data: Binding seen in cells or lysates may run through a third protein. For part of these data: Sequences can lack the tags named with a protein.

Chains of the proteins cited; added tags and fusions are not shown. Lines headed by an entry give the natural chain unless they say otherwise; changes in a name come on top.
UniProt P32337: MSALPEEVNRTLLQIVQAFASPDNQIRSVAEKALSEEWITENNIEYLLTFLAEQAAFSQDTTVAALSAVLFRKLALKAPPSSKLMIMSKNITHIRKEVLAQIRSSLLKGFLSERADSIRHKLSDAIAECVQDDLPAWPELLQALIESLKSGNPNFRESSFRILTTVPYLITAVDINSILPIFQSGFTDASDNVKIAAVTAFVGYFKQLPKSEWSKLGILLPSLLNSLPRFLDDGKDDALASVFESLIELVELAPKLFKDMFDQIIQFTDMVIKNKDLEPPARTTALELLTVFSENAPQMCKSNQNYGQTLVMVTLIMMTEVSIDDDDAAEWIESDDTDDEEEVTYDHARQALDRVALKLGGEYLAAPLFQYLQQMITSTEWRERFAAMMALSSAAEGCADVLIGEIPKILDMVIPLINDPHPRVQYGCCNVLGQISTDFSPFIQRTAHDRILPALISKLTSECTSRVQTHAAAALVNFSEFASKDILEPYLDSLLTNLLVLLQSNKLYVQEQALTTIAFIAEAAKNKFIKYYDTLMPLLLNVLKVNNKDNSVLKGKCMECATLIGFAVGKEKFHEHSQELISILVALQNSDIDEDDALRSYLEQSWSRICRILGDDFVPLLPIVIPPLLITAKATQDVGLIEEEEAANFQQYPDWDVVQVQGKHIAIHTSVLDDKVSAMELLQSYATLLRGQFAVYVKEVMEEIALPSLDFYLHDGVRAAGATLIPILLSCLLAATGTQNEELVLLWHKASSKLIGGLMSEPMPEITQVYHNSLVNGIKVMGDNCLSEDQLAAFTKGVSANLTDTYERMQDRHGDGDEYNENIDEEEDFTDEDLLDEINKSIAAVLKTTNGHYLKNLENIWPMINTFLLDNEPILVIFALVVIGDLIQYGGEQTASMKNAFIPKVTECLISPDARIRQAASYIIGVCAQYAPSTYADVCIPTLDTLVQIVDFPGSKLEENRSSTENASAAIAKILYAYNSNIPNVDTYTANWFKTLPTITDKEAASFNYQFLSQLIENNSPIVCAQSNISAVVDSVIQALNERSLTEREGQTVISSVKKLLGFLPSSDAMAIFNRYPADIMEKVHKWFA
UniProt Q12522: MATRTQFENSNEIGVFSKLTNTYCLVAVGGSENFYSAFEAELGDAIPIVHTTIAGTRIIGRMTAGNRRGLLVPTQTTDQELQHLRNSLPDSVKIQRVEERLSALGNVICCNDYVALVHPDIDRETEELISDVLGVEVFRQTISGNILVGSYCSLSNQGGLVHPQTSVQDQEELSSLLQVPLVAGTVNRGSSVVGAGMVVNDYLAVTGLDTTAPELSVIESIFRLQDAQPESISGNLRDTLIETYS
UniProt P0CX41: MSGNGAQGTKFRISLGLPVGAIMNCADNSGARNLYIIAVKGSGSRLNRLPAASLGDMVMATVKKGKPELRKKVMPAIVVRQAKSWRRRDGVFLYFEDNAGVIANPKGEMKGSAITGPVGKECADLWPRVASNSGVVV

How the values were obtained:
[1] = target: Bcp1-His6 (S. cerevisiae) (UniProt Q06338); assay: pull-down; Bcp1-His6 or bcp1ΔN mutants immobilised on Ni-NTA beads, recombinant uL14 or uL14 mutants
GST-Rkm1 (S. cerevisiae) = target: T1, GST-Rkm1 (S. cerevisiae) (UniProt Q08961); assay: pull-down; complex of GST-Rkm1 or GST-Rkm1(Y273F) with uL14 or uL14 mutants purified and held on glutathione beads; buffer alone or 0.5 mM SAM, 30°C, 80 min; three washes
T1 sequence: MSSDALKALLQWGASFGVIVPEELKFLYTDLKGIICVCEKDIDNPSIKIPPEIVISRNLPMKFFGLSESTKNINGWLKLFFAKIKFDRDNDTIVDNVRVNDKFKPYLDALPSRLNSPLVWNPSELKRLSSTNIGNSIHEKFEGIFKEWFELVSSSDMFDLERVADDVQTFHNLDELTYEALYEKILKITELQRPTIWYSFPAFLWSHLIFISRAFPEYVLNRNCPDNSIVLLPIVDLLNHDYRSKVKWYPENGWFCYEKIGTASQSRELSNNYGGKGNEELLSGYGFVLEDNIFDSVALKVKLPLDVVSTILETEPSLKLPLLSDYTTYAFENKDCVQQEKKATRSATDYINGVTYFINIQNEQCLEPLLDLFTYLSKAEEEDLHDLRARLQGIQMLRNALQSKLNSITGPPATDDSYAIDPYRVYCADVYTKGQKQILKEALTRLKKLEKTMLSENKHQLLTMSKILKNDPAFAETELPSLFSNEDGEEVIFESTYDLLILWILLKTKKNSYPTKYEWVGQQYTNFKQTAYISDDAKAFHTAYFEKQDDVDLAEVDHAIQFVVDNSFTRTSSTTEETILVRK

[2] = target: GST-Kap121 (S. cerevisiae) (UniProt P32337); assay: pull-down; release test: GST-Kap in complex with cargo immobilised on glutathione beads, purified Bcp1 or bcp1ΔN added for another hour at 4°C; what is left on the beads or in the supernatant by western blotting; both purified
Bcp1-myc (S. cerevisiae) = target: T2, Bcp1-myc (S. cerevisiae) (UniProt Q06338); assay: co-IP; myc-tagged bait precipitated with anti-c-myc antibody and protein A beads from yeast extracts in IP buffer (20 mM Tris pH 7.5, 50 mM NaCl, 6 mM MgCl2, 10% glycerol), 4°C; wild-type, rkm1Δ and GAL::RPL23 (4 h glucose) strains
T2 sequence: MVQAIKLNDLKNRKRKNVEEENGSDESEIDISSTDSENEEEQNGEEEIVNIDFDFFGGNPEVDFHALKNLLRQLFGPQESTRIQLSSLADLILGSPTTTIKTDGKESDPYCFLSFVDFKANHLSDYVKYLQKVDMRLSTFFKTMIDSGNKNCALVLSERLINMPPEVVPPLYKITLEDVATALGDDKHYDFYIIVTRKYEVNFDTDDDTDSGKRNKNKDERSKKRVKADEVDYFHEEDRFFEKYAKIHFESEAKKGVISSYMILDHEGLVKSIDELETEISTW

Rkm1-myc (S. cerevisiae) = target: T3, Rkm1-myc (S. cerevisiae) (UniProt Q08961); assay: as above
T3 sequence: T1 sequence

Tif6-myc (S. cerevisiae) = Tif6-myc (S. cerevisiae) (UniProt Q12522); assay: as above

binding [1] | binding (GST-Rkm1 (S. cerevisiae)) | binding [2] | binding (Bcp1-myc (S. cerevisiae)) | binding (Rkm1-myc (S. cerevisiae)) | binding (Tif6-myc (S. cerevisiae)) | Substance
no binding | binds | binds |  |  |  | uL14Δloop (recombinant) (from UniProt P0CX41)
 |  |  | no binding | binds | binds | uL14(Δloop)-HA (from UniProt P0CX41)
